From paper PMC12040169 (PLOS Biology, 2025)
The other results are listed elsewhere or left out.

test system: T1, CTL2-GFP (C. trachomatis L2/434/Bu, GFP-expressing); design: species or system HeLa; Intracellular C. trachomatis growth in HeLa cells, bulk GFP fluorescence relative to DMSO; details: bulk GFP, single well; 28.5 h, 10 µM; inhibitor
T1 construct: L2/434/Bu, GFP-expressing

SMILES	% of control remaining
Cc1cc(CNC(=O)C2CC(=O)N(Cc3ccccn3)C2)ccc1F (stereo not shown) [CBK305557]	169.277%
Nc1n[nH]c(=O)c2c1ncn2[C@H]1C[C@@H](O)[C@@H](CO)O1 [CBK201169]	162.834%
CCCCOc1ccc(C(=O)N(C)c2ccc(CCC)cc2)cc1 [CBK161619]	73.3907%
Cc1nn(C)c(C)c1CC(=O)N1CCc2c(sc3ncnc(N)c23)C1 [CBK306065]	109.558%
CC(C)c1ccc(S(=O)(=O)N(CCC#N)Cc2ccccc2)cc1 [CBK043565]	106.553%
O=C1NCCCC12CCN(Cc1cccc3cccnc13)CC2 [CBK284826]	157.433%
Cc1nc2c(c(=O)n1C)CN(Cc1cc(=O)n3cccc(O)c3n1)C2 [CBK306991]	138.174%
COc1ccccc1C(NC(=O)C1CCN(C(=O)OC(C)C)CC1)c1ccccn1 (stereo not shown) [CBK059649]	106.777%
CSCCCNC(=O)N(C)C1CCN(C)C1 (stereo not shown) [CBK155995]	108.69%
Cc1ccc(NC2=N[C@H]3[C@@H](O)[C@H](O)C[C@H](C(=O)N4CCCCC4)[C@H]3S2)cc1 [CBK288951]	132.76%
O=C(O)c1cc(C=Cc2ccc(Cl)c([N+](=O)[O-])c2)nc2ccccc12 [CBK297495]	125.106%
CN1CCC2(CC1)NCCc1c2ccn1S(=O)(=O)c1cccc2c(N(C)C)cccc12 [CBK061633C]	80.112%
CCOC(=O)c1ccc(Cn2c(-c3ccccc3)nnc2-c2ccccc2)o1 [CBK267691]	105.378%
O=[N+]([O-])c1ccc(NCCNc2nc3ccccc3nc2N2CCOCC2)cc1 [CBK266342]	55.4656%
COCCCn1c(CCC(=O)O)ccc1-c1ccc(Br)cc1 [CBK268015]	121.978%
Cc1ccccc1-n1ncc2c(=O)n(CC(=O)N3CCCCC3)cnc21 [CBK287688]	130.487%
CCc1ccccc1OCC(=O)Nc1ccc([N+](=O)[O-])cc1OC [CBK265665]	100%
[2H]C(C(=O)NCc1ccc2c(c1)CCC2)n1cc(-c2ccc(CN3CCC(C)CC3)cc2)nn1 (stereo not shown) [CBK166081-L1]	174.729%
O=C(NCCN1CCOCC1)c1cc(-c2ccccc2)on1 [CBK267479]	135.453%
CN(C)S(=O)(=O)N(CC(=O)N1CCN(Cc2ccc3c(c2)OCO3)CC1)c1ccccc1 [CBK267994]	92.1691%
Cc1cccc(C(=O)N2CCC(N(C)Cc3ccc(-c4ccc(S(C)(=O)=O)cc4)nc3)CC2)n1 [CBK165937T]	116.193%
O=C(c1cccnc1)C1CCN(C(=O)Cc2ccsc2)CC1 [CBK283517]	128.529%
O=C(C1CCOCC1)N1CCCC(c2cc3cccnc3[nH]2)C1 (stereo not shown) [CBK284941]	118.902%
COC(=O)c1cc(S(N)(=O)=O)c(C)o1 [CBK113185]	106.179%
CCOC(=O)c1c(NC(=O)CSc2nc[nH]n2)sc2c1CCCCC2 [CBK267231]	144.837%
O=C(/C=C/c1ccccc1)Nc1cccc(C(=O)O)c1 [CBK287193]	121.064%
O=C(NCCN1CCOCC1)c1ccc(-c2ccco2)nc1NCc1cccnc1 [CBK076112]	104.247%

SMILES	% of control remaining
CCC(=O)Nc1nonc1-c1nc2ccccc2n1Cc1ccc(F)cc1Cl [CBK269608]	176.092%
Cc1nn(C)c(C)c1CCNC(=O)CC1CCCCN1C (stereo not shown) [CBK281774]	124.687%
O=C1CCCN1CCCNc1ncnc2c1cnn2-c1ccc(Cl)cc1 [CBK265838]	159.378%
O=C(CSc1nc2ccccc2c(=O)[nH]1)Nc1ccc(Cl)c(C(=O)O)c1 [CBK268246]	127.18%
Cc1ccc(-c2n[nH]c(=S)n2CCC(=O)NC(C)c2ccc3c(c2)CCCC3)cc1 (stereo not shown) [CBK295666]	98.3994%
COc1ccc(C2CC(c3ccc(Cl)cc3)Nc3ncnn32)c(OC)c1 (stereo not shown) [CBK287848]	135.254%
Cc1cc(C)c(-c2csc(NS(=O)(=O)c3cccc(C(=O)O)c3)n2)cc1C [CBK296698]	125.772%
CC1CCC(C(N)=O)CN1C(=O)c1cc(Br)c[nH]1 (stereo not shown) [CBK305769]	127.547%
O=C(Nc1ccc2oc(-c3ccccc3)nc2c1)C1CCCO1 (stereo not shown) [CBK107724]	113.266%
COCCNC(=O)c1sc2ccccc2c1C1CCN(Cc2ccc3ncccc3c2)C1 (stereo not shown) [CBK285680]	116.469%
CCOC(=O)c1c(NC(=O)CSc2nc3ccccc3s2)sc2c1CCC2 [CBK263220]	127.908%
CCc1c(Cc2[nH]c(C)c(C(C)=O)c2C)[nH]c(C(=O)O)c1C [CBK286717]	122.741%
O=C(NC(=S)Nc1ccc2oc(-c3cncc(Br)c3)nc2c1)c1cc([N+](=O)[O-])ccc1N1CCOCC1 [CBK268864]	74.9171%
Cc1ccc(S(=O)(=O)N(CCO)CC(O)Cn2c3ccc(Cl)cc3c3cc(Cl)ccc32)cc1 (stereo not shown) [CBK263392]	64.7632%
O=C(NC1CCCCC1)c1cc(NC(=O)c2ccccc2C(=O)O)ccc1Cl [CBK287062]	120.168%
O=[N+]([O-])c1ccc2c(c1)nnn2CN1CCCCC1 [CBK261663]	118.243%
CN1N=C(c2ccccc2)CC1=O [CBK067774]	107.613%
COCOc1ccc(-c2ncc(OCCN3CCCC3=O)nc2NC(C)=O)cc1 [CBK145253]	130.285%
Cc1ccc(S(=O)(=O)NC2c3cccc4cccc(c34)C2Sc2nncn2N)cc1 (stereo not shown) [CBK265873]	93.2359%
C#CCOc1ccc(/C=C2/SC(=S)N(CCC(=O)O)C2=O)cc1 [CBK265667]	126.951%
Cc1cc(Cl)c(OCCn2c3ccccc3c3ccccc32)c(Br)c1 [CBK264826]	100%
NC(=O)CN1CCCc2ccccc21 [CBK138343]	109.969%
O=C(O)CCC(=O)N1N=C(c2ccccc2)CC1c1ccc2nccnc2c1 (stereo not shown) [CBK266650]	116.834%
O=C(NCc1ccccn1)Nc1ccc2c(c1)OCO2 [CBK267014]	166.949%
CC(C)N1CCC(CNC(=O)c2cc3ccccc3c(=O)s2)CC1 [CBK282711]	154.383%
Cc1sc2ncnc(N3CCCC3Cn3cccn3)c2c1C (stereo not shown) [CBK304570]	96.3955%
Cc1nc2sccn2c1CN1CCc2sccc2C1C (stereo not shown) [CBK282807]	110.529%

Part of the list above, with bars between the fields.
SMILES | % of control remaining
CCOC(=O)c1c(NC(=O)CSc2nc3ccccc3s2)sc2c1CCC2 [CBK263220] | 127.908%
CCc1c(Cc2[nH]c(C)c(C(C)=O)c2C)[nH]c(C(=O)O)c1C [CBK286717] | 122.741%
O=C(NC(=S)Nc1ccc2oc(-c3cncc(Br)c3)nc2c1)c1cc([N+](=O)[O-])ccc1N1CCOCC1 [CBK268864] | 74.9171%
Cc1ccc(S(=O)(=O)N(CCO)CC(O)Cn2c3ccc(Cl)cc3c3cc(Cl)ccc32)cc1 (stereo not shown) [CBK263392] | 64.7632%
O=C(NC1CCCCC1)c1cc(NC(=O)c2ccccc2C(=O)O)ccc1Cl [CBK287062] | 120.168%

Continuation.

SMILES	% of control remaining
O=C(Cc1c[nH]c2ccccc12)Nc1ccccc1N1CCNCC1 [CBK028288T]	110.47%
Cc1cccc(NC(=O)[C@@H](NC(=O)c2ccccc2F)C(C)C)c1C [CBK297509]	146.11%
COc1ccccc1CC(=O)N(Cc1cccnc1)C[C@@H]1CCC(=O)N1 [CBK307504]	104.903%
CN1CCN(c2nc(-c3ccco3)cnc2N)CC1 [CBK063449]	170.209%
COC(=O)[C@@H]1CN(C(=O)c2cccs2)C[C@H]1c1ccc(OC)cc1 [CBK283725]	124.641%
Cc1ccc(CC(=O)N2CCc3nn(C(C)C)c(=O)cc3C2)cc1 [CBK284499]	123.081%
Cc1ccc2[nH]c(SCC(=O)Nc3ccc(C(=O)O)cc3)nc2c1 [CBK297526]	145.151%
Cn1c(CNc2ccccc2C(=O)O)c(C#N)c2ccccc21 [CBK286977]	138.487%
CS(=O)(=O)N1CC2(CCN(Cc3ccccc3F)CC2)c2ccccc21 [CBK084004]	139.37%
Cc1ccc2c(c1)C1(CCN(C/C=C\c3ccccc3)CC1)NC(=O)C2 [CBK040216]	99.8988%
Nc1cc(=O)[nH]c(=O)n1CCc1ccccc1 [CBK269984]	133.204%
COc1cccc(NC(=O)CC(CN2CCN(c3ccccc3)CC2)C(=O)O)c1 (stereo not shown) [CBK286789]	130.901%
C=CCN1C(=O)C2(CC(=O)N(CC(=O)N(C)C)C2=O)c2cc(OC)ccc21 (stereo not shown) [CBK075227]	115.8%
CN1CCC(N(C)C(=O)NCc2ccc(Cl)c(Cl)c2)C1 (stereo not shown) [CBK155996]	100%
CC(C)N1CCC(N(C)Cc2nc3ccccc3[nH]2)CC1 [CBK283021]	122.14%
COc1ccc2[nH]c3c(c2c1)CCN(CCc1ccc(F)cc1)C3 [CBK082819T]	143.143%
Cc1nc2ccc(NC(=O)N3CCC(c4ccccc4)C3)cc2s1 (stereo not shown) [CBK266512]	150.527%
Cc1nccn1CCCn1cncc1-c1ccc2c(c1)CCC(C)N2C (stereo not shown) [CBK281811]	131.373%
Oc1cccnc1SCc1nc2ccccc2s1 [CBK016367]	92.7756%
COc1ccc2[nH]c3c(c2c1)CCOC31CCN(CCC(F)=C(F)F)CC1 [CBK040118]	71.603%
Cn1c(CN2CCN(C(=O)Nc3ccccc3)CC2)nc2cc([N+](=O)[O-])ccc21 [CBK268260]	108.893%
Oc1cc(C(F)(F)F)nc(CCc2ccc(Cl)cc2)n1 [CBK003678]	86.1131%
COc1cc(-c2cc(Nc3ccc(N(C)C)cc3)ncn2)cc(OC)c1OC [CBK090945]	91.1444%
O=C(N/N=C/c1ccccc1O)c1ccn(Cc2ccc(Cl)cc2)n1 [CBK262770]	91.0017%
O=C(N[C@H]1C2CCCCC2[C@@H]1c1ccccc1)c1cncnc1 (stereo partly shown) [CBK282949]	134.543%
